The other results are listed elsewhere or left out. Repeats are few or missing, and single values can be far off.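 The apoptosis fraction was the count of cleaved-PARP antibody-stained nuclei relative to all DNA-stained nuclei, imaged in 1,536-well plates. Screening doses were set so most cells survived, and baseline and induced cleaved-PARP levels vary greatly across cell lines.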
Assays:
Assay in all cases: cleaved PARP positive nuclei fraction relative to DMSO control; melanoma cells; higher = more apoptosis
Conditions in all cases: library dose: low library concentration; 72 h
501Mel = tested on: 501Mel
A101D = tested on: A101D
A2058 = tested on: A2058
A375 = tested on: A375
C32 = tested on: C32
CBRC013 = tested on: CBRC013 (line from a melanoma biopsy)
CBRC014 = tested on: CBRC014 (line from a melanoma biopsy)
CBRC016 = tested on: CBRC016 (line from a melanoma biopsy)
CBRC017 = tested on: CBRC017 (line from a melanoma biopsy)
CBRC034 = tested on: CBRC034 (line from a melanoma biopsy)
COLO792 = tested on: COLO792
COLO800 = tested on: COLO800
COLO829 = tested on: COLO829
G361 = tested on: G361
IPC-298 = tested on: IPC-298
IST-MEL1 = tested on: IST-MEL1
LB2518-MEL = tested on: LB2518-MEL
LOXIMVI = tested on: LOXIMVI

Compound | cleaved PARP positive nuclei fraction (501Mel) | cleaved PARP positive nuclei fraction (A101D) | cleaved PARP positive nuclei fraction (A2058) | cleaved PARP positive nuclei fraction (A375) | cleaved PARP positive nuclei fraction (C32) | cleaved PARP positive nuclei fraction (CBRC013) | cleaved PARP positive nuclei fraction (CBRC014) | cleaved PARP positive nuclei fraction (CBRC016) | cleaved PARP positive nuclei fraction (CBRC017) | cleaved PARP positive nuclei fraction (CBRC034) | cleaved PARP positive nuclei fraction (COLO792) | cleaved PARP positive nuclei fraction (COLO800) | cleaved PARP positive nuclei fraction (COLO829) | cleaved PARP positive nuclei fraction (G361) | cleaved PARP positive nuclei fraction (IPC-298) | cleaved PARP positive nuclei fraction (IST-MEL1) | cleaved PARP positive nuclei fraction (LB2518-MEL) | cleaved PARP positive nuclei fraction (LOXIMVI)
COCC[n+]1c2c(n(Cc3cnccn3)c1C)C(=O)c1ccccc1C2=O + O=S(=O)(c1ccccc1)N(CC(F)(F)F)c1ccc(C(O)(C(F)(F)F)C(F)(F)F)cc1 [T0901317] (first compound 0.0004 µM, partner dose 1.4 µM) | 61.4% | 60.1% | 422% | 362% | 135% | 71.1% | 87.1% | 92.6% | 298% | 83.2% | 66.2% | 424% | 178% | 106% | 125% | 93.4% | 46.3% | 113%
Cn1cncc1[C@@](N)(c1ccc(Cl)cc1)c1ccc2c(c1)c(-c1cccc(Cl)c1)cc(=O)n2C [tipifarnib] + COc1ccc(COc2ccc(Cc3cnc(N)nc3N)cc2OC)cc1 [GW2580] (first compound 0.01 µM, partner dose 1 µM) | 180% | 321% | 92.4% | 155% | 175% | 79.7% | 76.4% | 47.4% | 73.4% | 32.2% | 88% | 24% | 54.4% | 117% | 54.9% | 128% | 102% | 125%
Cc1ccc(NC(=O)c2cccc(N(C)C)c2)cc1NC(=O)c1ccc(O)cc1 + COc1cc2ncnc(Nc3ccc(Oc4ccccc4)cc3)c2cc1OC [SrcI1] (first compound 2 µM, partner dose 2 µM) | 41.6% | 257% | 40.8% | 69.9% | 178% | 191% | 108% | 83.8% | 121% | 101% | 139% | 120% | 126% | 72.5% | 99.3% | 456% | 260% | 53%
C[C@]1(c2nc3c(C(N)=O)cccc3[nH]2)CCCN1 [Veliparib] + Cn1cc(/C=C2\C(=O)Nc3cccnc32)c2ccccc21 [GW441756] (first compound 1.4 µM, partner dose 0.4 µM) | 67.3% | 59.5% | 43.2% | 23.4% | 290% | 106% | 108% | 40.9% | 71.4% | 65.7% | 139% | 131% | 207% | 288% | 40.1% | 42.7% | 79.5% | 77.5%
CC(C)(C)c1cnc(CSc2cnc(NC(=O)C3CCNCC3)s2)o1 + CCc1ccc(CCOc2ccc(CC3SC(=O)NC3=O)cc2)nc1 [pioglitazone] (first compound 0.01 µM, partner dose 2 µM) | 72% | 34.6% | 87.8% | 116% | 194% | 51.8% | 103% | 82.8% | 85.9% | 82.5% | 119% | 93.7% | 194% | 25.1% | 25.1% | 64% | 77.8% | 55.7%
Cc1nc(Nc2ncc(C(=O)Nc3c(C)cccc3Cl)s2)cc(N2CCN(CCO)CC2)n1 [dasatanib] + CCCCCCCCCCCC1=C(O)C(=O)C=C(O)C1=O [Embelin] (first compound 0.004 µM, partner dose 1.2 µM) | 71.4% | 192% | 122% | 111% | 136% | 416% | 107% | 93.2% | 77.6% | 407% | 123% | 121% | 92.2% | 84% | 41.2% | 96.4% | 171% | 118%
Cc1nc(Nc2ncc(C(=O)Nc3c(C)cccc3Cl)s2)cc(N2CCN(CCO)CC2)n1 [dasatanib] + CCc1ccc(CCOc2ccc(CC3SC(=O)NC3=O)cc2)nc1 [pioglitazone] (first compound 0.004 µM, partner dose 2 µM) | 84.6% | 128% | 157% | 84.1% | 131% | 224% | 96.2% | 79% | 90.3% | 148% | 187% | 161% | 55.9% | 106% | 43.9% | 144% | 87.8% | 193%
Cn1cncc1[C@@](N)(c1ccc(Cl)cc1)c1ccc2c(c1)c(-c1cccc(Cl)c1)cc(=O)n2C [tipifarnib] + N#Cc1c(O)c2c(-c3ccc(-c4ccccc4O)cc3)csc2[nH]c1=O [A769662] (first compound 0.01 µM, partner dose 2 µM) | 57.4% | 66.2% | 48.4% | 158% | 122% | 181% | 86.8% | 115% | 99% | 115% | 56.6% | 153% | 112% | 150% | 84.8% | 88% | 111% | 44.3%
COCC[n+]1c2c(n(Cc3cnccn3)c1C)C(=O)c1ccccc1C2=O + COc1ccc2c(c1)CCC1C2CCC2(C)C(NCCCCCCN3C(=O)C=CC3=O)CCC12 [U73122] (first compound 0.0004 µM, partner dose 0.4 µM) | 68.8% | 68.3% | 72.4% | 170% | 111% | 19.4% | 120% | 140% | 44.4% | 86.8% | 104% | 19.9% | 58.4% | 51.7% | 51.4% | 35.1% | 44.2% | 93.4%
O=C(CCCCCCC(=O)Nc1ccccc1)NO [vorinostat] + Cn1cc(/C=C2\C(=O)Nc3cccnc32)c2ccccc21 [GW441756] (first compound 0.08 µM, partner dose 0.4 µM) | 59% | 107% | 920% | 81.4% | 200% | 61.9% | 90.6% | 97.8% | 107% | 53.3% | 58% | 128% | 99.2% | 95.7% | 84.8% | 45% | 125% | 45.9%
NC(=O)Nc1cc(-c2cccc(F)c2)sc1C(=O)N[C@H]1CCCNC1 + COC(=O)c1sccc1S(=O)(=O)Nc1ccc(Nc2ccccc2)cc1OC [GSK0660] (first compound 0.02 µM, partner dose 1 µM) | 84.6% | 29.2% | 58.2% | 172% | 43.9% | 64.7% | 95% | 121% | 230% | 142% | 109% | 172% | 90.9% | 76.5% | 52.6% | 37.4% | 68.2% | 65%
CO[C@@H]1[C@H](N(C)C(=O)c2ccccc2)C[C@H]2O[C@]1(C)n1c3ccccc3c3c4c(c5c6ccccc6n2c5c31)C(=O)NC4 [Midostaurin] + CCCCCCCCCCCC1=C(O)C(=O)C=C(O)C1=O [Embelin] (first compound 0.08 µM, partner dose 1.2 µM) | 64.7% | 194% | 17.9% | 58% | 158% | 191% | 106% | 93.6% | 46.2% | 113% | 127% | 93.9% | 62.3% | 149% | 39.4% | 200% | 77.2% | 73.8%
COc1cc(Nc2ncc(F)c(Nc3ccc4c(n3)NC(=O)C(C)(C)O4)n2)cc(OC)c1OC [Tamatinib] + CCCCCCCCCCCC1=C(O)C(=O)C=C(O)C1=O [Embelin] (first compound 0.4 µM, partner dose 1.2 µM) | 79.3% | 199% | 128% | 35.5% | 82.4% | 550% | 87.1% | 19.7% | 87.1% | 184% | 148% | 184% | 129% | 105% | 40.2% | 102% | 97.6% | 38.3%
Cn1nnc2c(C(N)=O)ncn2c1=O [temozolomide] + CCCCCCCCCCCC1=C(O)C(=O)C=C(O)C1=O [Embelin] (first compound 2 µM, partner dose 1.2 µM) | 77.7% | 58.2% | 93.9% | 184% | 164% | 192% | 114% | 20.4% | 66.6% | 82.7% | 257% | 109% | 89.9% | 72.8% | 41.6% | 40.9% | 83.5% | 74.3%
COc1cc(Nc2ncc(F)c(Nc3ccc4c(n3)NC(=O)C(C)(C)O4)n2)cc(OC)c1OC [Tamatinib] + c1cc(-c2cnn3cc(-c4ccc(OCCN5CCCCC5)cc4)cnc23)ccn1 [Dorsomorphin] (first compound 0.4 µM, partner dose 0.4 µM) | 162% | 127% | 78.9% | 180% | 63% | 187% | 92.2% | 85.5% | 110% | 132% | 244% | 39.6% | 108% | 128% | 154% | 95.2% | 99.9% | 92.8%
C=CCn1c(=O)c2cnc(Nc3ccc(N4CCN(C)CC4)cc3)nc2n1-c1cccc(C(C)(C)O)n1 + COc1ccc2c(c1)CCC1C2CCC2(C)C(NCCCCCCN3C(=O)C=CC3=O)CCC12 [U73122] (first compound 0.02 µM, partner dose 0.4 µM) | 141% | 220% | 253% | 979% | 252% | 172% | 115% | 92.5% | 51.2% | 104% | 148% | 308% | 110% | 104% | 67.8% | 531% | 201% | 113%
C=CCn1c(=O)c2cnc(Nc3ccc(N4CCN(C)CC4)cc3)nc2n1-c1cccc(C(C)(C)O)n1 + O=C1NC(=O)/C(=C/c2ccc(-c3ccc(F)cc3O)o2)S1 [AS252424] (first compound 0.02 µM, partner dose 1 µM) | 71.4% | 176% | 43.7% | 208% | 94.7% | 534% | 113% | 118% | 78.2% | 29.8% | 102% | 110% | 141% | 104% | 85.4% | 59.7% | 185% | 73.2%
O=C(CCCCCCC(=O)Nc1ccccc1)NO [vorinostat] + O=C(Nc1ccccc1)c1cc([N+](=O)[O-])ccc1Cl [GW9662] (first compound 0.08 µM, partner dose 2 µM) | 80.2% | 113% | 128% | 15.8% | 51.9% | 44.1% | 89.7% | 86.8% | 104% | 99.2% | 80.8% | 122% | 110% | 57.8% | 85% | 55.9% | 91.8% | 35.3%
Cn1nnc2c(C(N)=O)ncn2c1=O [temozolomide] + O=C(Nc1ccccc1)c1cc([N+](=O)[O-])ccc1Cl [GW9662] (first compound 2 µM, partner dose 2 µM) | 94.7% | 115% | 50.8% | 157% | 400% | 123% | 113% | 74.1% | 88% | 66.6% | 55.6% | 108% | 185% | 51.7% | 38.2% | 126% | 41.5% | 95.5%

Given with tabs: entries from further up
Compound	cleaved PARP positive nuclei fraction (501Mel)	cleaved PARP positive nuclei fraction (A101D)	cleaved PARP positive nuclei fraction (A2058)	cleaved PARP positive nuclei fraction (A375)	cleaved PARP positive nuclei fraction (C32)	cleaved PARP positive nuclei fraction (CBRC013)	cleaved PARP positive nuclei fraction (CBRC014)	cleaved PARP positive nuclei fraction (CBRC016)	cleaved PARP positive nuclei fraction (CBRC017)	cleaved PARP positive nuclei fraction (CBRC034)	cleaved PARP positive nuclei fraction (COLO792)	cleaved PARP positive nuclei fraction (COLO800)	cleaved PARP positive nuclei fraction (COLO829)	cleaved PARP positive nuclei fraction (G361)	cleaved PARP positive nuclei fraction (IPC-298)	cleaved PARP positive nuclei fraction (IST-MEL1)	cleaved PARP positive nuclei fraction (LB2518-MEL)	cleaved PARP positive nuclei fraction (LOXIMVI)
Cc1nc(Nc2ncc(C(=O)Nc3c(C)cccc3Cl)s2)cc(N2CCN(CCO)CC2)n1 [dasatanib] + CCCCCCCCCCCC1=C(O)C(=O)C=C(O)C1=O [Embelin] (first compound 0.004 µM, partner dose 1.2 µM)	71.4%	192%	122%	111%	136%	416%	107%	93.2%	77.6%	407%	123%	121%	92.2%	84%	41.2%	96.4%	171%	118%
Cc1nc(Nc2ncc(C(=O)Nc3c(C)cccc3Cl)s2)cc(N2CCN(CCO)CC2)n1 [dasatanib] + CCc1ccc(CCOc2ccc(CC3SC(=O)NC3=O)cc2)nc1 [pioglitazone] (first compound 0.004 µM, partner dose 2 µM)	84.6%	128%	157%	84.1%	131%	224%	96.2%	79%	90.3%	148%	187%	161%	55.9%	106%	43.9%	144%	87.8%	193%
Cn1cncc1[C@@](N)(c1ccc(Cl)cc1)c1ccc2c(c1)c(-c1cccc(Cl)c1)cc(=O)n2C [tipifarnib] + N#Cc1c(O)c2c(-c3ccc(-c4ccccc4O)cc3)csc2[nH]c1=O [A769662] (first compound 0.01 µM, partner dose 2 µM)	57.4%	66.2%	48.4%	158%	122%	181%	86.8%	115%	99%	115%	56.6%	153%	112%	150%	84.8%	88%	111%	44.3%
